Measured values taken from PubChem BioAssay AID485314 (National Center for Advancing Translational Sciences (NCATS), 2010).
Out of some 340,000 compounds screened, about 4,500 (1.3%) were called active. The inconclusive results got no clear call from the source; some entries with a clear call stand among them for comparison. The call rests on the fitted dose curve; in most records, active means well fitted inhibition curve with a large enough effect; inconclusive means small, poorly fitted or top-dose-only effect, or another doubt; inactive means no such curve, though single readings can be large or run the other way. A potency beside an inconclusive call is a rough fit, not a confirmed value.

Target: DNA polymerase beta (Homo sapiens) (UniProt P06746)
Assay: qHTS Assay for Inhibitors of DNA Polymerase Beta
Conditions: Pol beta primer extension/strand displacement, fluorescence kinetic; activity change, negative = inhibition: at 114 µM (top of the series)
How it was run: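 10 nM enzyme + cpd, 15 min RT; start with substrate 50 nM final; read 0 min and after 10 min RT. Corrected, normalized data; 4-parameter Hill curve fit.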
On the % scale 0 is the no-effect control and ±100 the full control effect; potency means the concentration at half of the fitted maximal effect.

Potency, inconclusive:
Cc1ccc(OCC(=O)Nc2ccc3c(c2)nc(CCN2CCN(C)CC2)n3C)cc1 89.1 µM [inhibitor, single point]
CCN(CC)C(=O)CC(c1ccc2c(c1)OCO2)c1c(O)cc(OC)cc1OC (stereo not drawn) 15.8 µM [inhibitor, partial curve]
CCOC(=O)C(=O)N(Nc1ccc(C)cc1)c1ccc(C)cc1 79.4 µM [inhibitor, single point]
COc1ccc(-c2cn3cccnc3n2)cc1NC(=O)c1ccc(Br)o1 50.1 µM [inhibitor, partial curve]
O=C(CSc1cnc2ccccc2n1)c1ccc(F)cc1 39.8 µM [inhibitor, single point]
Cc1ccccc1NC(=O)Cc1nc(COC(=O)c2ccc(O)cc2O)cs1 10 µM [inhibitor, partial curve]
CC(=O)c1cccc(NC(=S)N2CCN(c3ccccn3)CC2)c1 0.562 µM [inhibitor, full curve, poor fit]
CCOc1ccccc1CNC(=O)c1ccc2nc(N3CCOCC3)sc2c1 79.4 µM [inhibitor, single point]
O=C1NN(c2ccc(F)cc2)C(=O)/C1=C\C=C\c1ccco1 44.7 µM [inhibitor, partial curve]
Cc1c(C(=O)OC(C)C)sc(NC(=O)C2c3ccccc3Oc3ccccc32)c1C(=O)OC(C)C 14.1 µM [inhibitor, full curve, poor fit]
O=C(O)CCC(=O)Nc1sc2c(c1C(=O)Nc1ccccc1)CCCCC2 39.8 µM [inhibitor, single point]
Cc1ccc(S(=O)(=O)N2CCC(C(=O)OCC(=O)N3CCc4ccccc43)CC2)cc1 2.82 µM [inhibitor, full curve, poor fit]
COc1ccccc1NC(C)=[N+](C)CCNS(=O)(=O)c1ccc(Cl)cc1 3.55 µM [inhibitor, partial curve]
O=C(N[C@@H](Cc1ccccc1)C(=O)OCc1ccccc1)c1nc[nH]c1C(=O)NCc1ccccc1 39.8 µM [inhibitor, single point]
O=C(Nc1cccc(C(F)(F)F)c1)c1cc(-c2ccc3c(c2)OCCO3)on1 17.8 µM [inhibitor, full curve]
CCOC(=O)C1=C(c2ccccc2)OC(N)=C(C#N)C1c1ccncc1 (stereo not drawn) 39.8 µM [inhibitor, single point]
Cc1ccc(N(C)C(=O)c2cc(S(=O)(=O)N3CCc4ccccc43)cn2C)cc1 0.112 µM [inhibitor, full curve, poor fit]
Nc1cc(C(=O)OCC(=O)NCc2ccco2)ccc1Cl 79.4 µM [inhibitor, partial curve, poor fit]
CCN(CCNC(=O)C1CCN(S(=O)(=O)c2c(C)noc2C)CC1)c1ccccc1 89.1 µM [inhibitor, single point]
COc1ccc(C2=C(C)C(N3CCC(C(=O)Nc4ccc(F)cc4C)CC3)=NS2(=O)=O)cc1 35.5 µM [inhibitor, full curve]
COc1ccc(C2C(C(=O)OCC3CCCO3)=C(C)NC3=C2C(=O)CC(c2ccco2)C3)cc1O (stereo not drawn) 79.4 µM [inhibitor, single point]
COc1ccc(C(C(=O)NC2CCCC2)N(CCO)C(=O)Cn2nnc(-c3ccc(C)o3)n2)cc1OC (stereo not drawn) 100 µM [inhibitor, single point]
Cc1ccc(N(Cc2cccs2)C(=O)c2ccccc2Cl)cc1 100 µM [inhibitor, single point]
CCN1CCN(CCCNC(=O)c2ccc(/C=C3/Sc4ccccc4N(Cc4ccccc4F)C3=O)cc2)CC1 89.1 µM [inhibitor, single point]
O=C(C1CC(=O)N(c2ccc3c(c2)OCCO3)C1)N1CCN(c2ccccc2)CC1 (stereo not drawn) 25.1 µM [inhibitor, partial curve, poor fit]
CSc1ncccc1C(=O)OCC(=O)c1cc(C)n(CC2CCCO2)c1C (stereo not drawn) 39.8 µM [inhibitor, single point]
Cc1ccc2c(=O)c(C(=O)c3ccccc3)cn(CC(=O)Nc3ccc4c(c3)OCCO4)c2n1 22.4 µM [inhibitor, partial curve, poor fit]
O=C(COC(=O)c1cc(-c2cccs2)nc2ccccc12)c1ccc(Br)cc1 0.316 µM [inhibitor, partial curve]
Cc1cc(C)cc(OCCn2c(C3CC(=O)N(c4ccccc4Cl)C3)nc3ccccc32)c1 (stereo not drawn) 44.7 µM [inhibitor, single point]
COc1ccc(CC(=O)Nc2cccc(C(=O)Nc3cccc(C)c3)c2)cc1 70.8 µM [inhibitor, single point]
COc1cccc(CN(C)C(=S)Nc2cccc(C)c2)c1 0.282 µM [inhibitor, full curve, poor fit]
O=C(N/N=C/c1cccc(Oc2ccccc2)c1)c1ccc(O)cc1O 31.6 µM [inhibitor, single point]
O=C(NCc1ccco1)c1cc2n(n1)C(C(F)(F)F)CC(c1ccc(Cl)c(Cl)c1)N2 (stereo not drawn) 89.1 µM [inhibitor, single point]
Cc1c(/C=N/n2cnnc2)c2ccccc2n1CCOc1ccc(Cl)cc1 39.8 µM [inhibitor, partial curve]
COc1ccccc1/C=N/NC(=O)CNC(=O)c1ccccc1 63.1 µM [inhibitor, single point]
CCOc1cc(/C=C(\C#N)c2[nH]nc(N)c2C#N)ccc1O 79.4 µM [inhibitor, single point]
CCn1cnc2sc(C(=O)Oc3cccc(C)c3)c(C)c2c1=O 89.1 µM [inhibitor, single point]
Cc1ccc2nc(NC(=O)CCCC(=O)O)sc2c1 25.1 µM [inhibitor, full curve]

Potency, active:
NC(N)=N/N=C/c1ccc(OCc2ccccc2)c(OCc2ccccc2)c1 79.4 µM
O=C1c2ccccc2C(=O)N1c1cccc(-c2csc(Nc3ccc4c(c3)OCO4)n2)c1 28.2 µM
Cc1cccc(/C=N/n2c(-c3cc(-c4ccccc4)n[nH]3)n[nH]c2=S)c1 56.2 µM
O=[N+]([O-])c1c(NCCCO)cc(SCc2ccco2)c2nonc12 50.1 µM
Cc1ccc(C(=O)Oc2coc(CSc3nnc(NC(=O)c4cccs4)s3)cc2=O)cc1C 20 µM
C[N+](C)(CCCCCC[N+](C)(C)CCCN1C(=O)c2cccc3cccc(c23)C1=O)CCCN1C(=O)c2cccc3cccc(c23)C1=O 2.38 µM
O=C(Cc1ccc(S(=O)(=O)N2CCOCC2)s1)Nc1ccccc1Br 35.5 µM
COc1cccc(NS(=O)(=O)c2ccc3c(c2)CCCN3C(C)=O)c1 79.4 µM
CCOC(=O)c1sc(N=NC2=C(O)CCCC2=O)c(C(=O)OCC)c1C 8.91 µM
Cc1cccc(OCc2cc(=O)n3c(-c4ccccc4)csc3n2)c1C 28.2 µM

Potency, inactive:
CCOc1cc(Br)cc(C2NC(=O)c3c(sc4c3CCN(C)C4)N2)c1O (stereo not drawn)
Cc1ccc(CCNC(=O)CCCn2c(=O)c3ccccc3n(Cc3ccccc3C)c2=O)cc1
CC(C)c1ccc(OCc2ccc(C(=O)N(C)C)o2)cc1
Cc1ccc(/C=N/NC(=O)c2nc3nc(C)cc(C)n3n2)cc1
Cc1c(NS(=O)(=O)c2cccc(C(=O)OCC(=O)N(C)C3CCCCC3)c2)c(=O)n(-c2ccccc2)n1C
COc1ccc(-n2nc(C(=O)N3CCN(c4ccccc4OC)CC3)c3c4ccccc4n(C)c3c2=O)cc1Cl
O=C(NC1CCCc2ccccc21)c1ccc2c(c1)sc1nc(-c3ccccc3)cn12 (stereo not drawn)
Cc1ccsc1CN(C(=O)c1ccc(OCC(C)C)cc1)C1CCS(=O)(=O)C1 (stereo not drawn)
CCSc1nnc(NC(=O)c2cc(=O)c3cc(C)c(C)cc3o2)s1
CC(=O)c1ccc(NC(=O)[C@@H]2CCCN2C(=O)OC(C)(C)C)cc1
CCOC(=O)/C=C/C(=O)N1CCc2ccccc21
NS(=O)(=O)c1ccc(NC(=O)Nc2ccc(S(N)(=O)=O)cc2)cc1
CC(C)(C)c1ccc(C2Sc3ccccc3NC3=C2C(=O)c2ccccc23)cc1 (stereo not drawn)
COc1ccc(N2C(=O)CSC23C(=O)N(CC(=O)NC2CCCCC2)c2ccccc23)cc1 (stereo not drawn)
CC1(C)C=C2C(=NN(c3ccccc3)C(N)=C2C#N)CO1
CCn1c(=O)c2sccc2n2c(CCCC(=O)N3CCN(c4ccc(OC)cc4)CC3)nnc12
COc1ccc(N2CCN(C(=O)c3c(C)oc4ncnc(N5CCCCC5)c34)CC2)cc1

Four compounds drawn at random from the list so far, as already listed:
Potency, inactive:
COc1ccc(-n2nc(C(=O)N3CCN(c4ccccc4OC)CC3)c3c4ccccc4n(C)c3c2=O)cc1Cl
Cc1ccsc1CN(C(=O)c1ccc(OCC(C)C)cc1)C1CCS(=O)(=O)C1 (stereo not drawn)
Cc1ccc(CCNC(=O)CCCn2c(=O)c3ccccc3n(Cc3ccccc3C)c2=O)cc1
O=C(NC1CCCc2ccccc21)c1ccc2c(c1)sc1nc(-c3ccccc3)cn12 (stereo not drawn)

Following part:

Activity change, negative = inhibition, inconclusive:
CCN(CC)C(=O)CN1C(=O)/C(=C/c2ccccc2)SC1=S -30.1% [inhibitor]
COc1ccc(N2C(=O)CC(N(CCc3ccc(S(N)(=O)=O)cc3)C(=S)Nc3ccccc3)C2=O)cc1 (stereo not drawn) -42.6% [inhibitor]
CCOP(=O)(OCC)/C(C#N)=C(\O)c1ccc(OC)cc1 -102% [inhibitor]
